Reference: patent US20080160035A1
Results are given in words; binding and its absence hold for the method and conditions named. Some binding calls cover weakened binding; strength is not graded here.

By UniProt entry, the sequences of proteins in these tests, tags left out. Residues count along the entry.
UniProt P24394, residues 26-232: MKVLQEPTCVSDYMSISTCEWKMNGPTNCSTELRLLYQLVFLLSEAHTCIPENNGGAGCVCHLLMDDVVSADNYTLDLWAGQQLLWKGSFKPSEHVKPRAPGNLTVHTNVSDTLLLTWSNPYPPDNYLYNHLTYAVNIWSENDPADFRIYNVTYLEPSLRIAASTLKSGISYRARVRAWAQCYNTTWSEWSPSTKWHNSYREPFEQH

How the values were obtained:
[1] = target: monomeric hIL-4R (R&D Systems) (human) (UniProt P24394); assay: Western blot, reducing SDS-PAGE
hIL-4R (human) = hIL-4R (human) (UniProt P24394); assay: screen of hybridoma conditioned media
[2] = target: monomeric hIL-4R (R&D Systems) (human) (UniProt P24394); assay: Western blot, non-reducing SDS-PAGE
[3] = target: dimeric hIL-4R-hFc (human) (UniProt P24394); assay: OCTET sequential binding assay, biotin-hIL-4R-hFc on streptavidin biosensors, first antibody at 50 µg/ml

- binding [1]: binds
- binding (hIL-4R (human)): binds
- binding [2]: binds
- binding [3]: binds
B1: VAB 16F3-1 (antibody, V domains shown)
VH: QVQLVQSGAEVKKPGASVKVSCKASGYTFNSYGISWVRQAPGQGLEWMGWIRTYNGNTNYAQKLQGRVTMTTDTSTSTAYMELRSLRSDDTAVYYCARDEARIVVAGTTPYYYGMDVWGQGTTVTVSS
VL: DIQMTQSPSSVSASVGDRVTITCRASQDISIWLAWYQQSPGKAPKLLINVASRLQSGVPSRFSGSGSGTDFTLTINSLQPEDFVTYYCQQANSFPITFGQGTRLATK
